Source: ChEMBL document CHEMBL3988442, “University of Dundee, Small-Polar-MMV Screening Library” (2021).

The chains behind the UniProt entries cited, without tags or fusion partners. Residues count along the entry.
UniProt A4I591, 1-473: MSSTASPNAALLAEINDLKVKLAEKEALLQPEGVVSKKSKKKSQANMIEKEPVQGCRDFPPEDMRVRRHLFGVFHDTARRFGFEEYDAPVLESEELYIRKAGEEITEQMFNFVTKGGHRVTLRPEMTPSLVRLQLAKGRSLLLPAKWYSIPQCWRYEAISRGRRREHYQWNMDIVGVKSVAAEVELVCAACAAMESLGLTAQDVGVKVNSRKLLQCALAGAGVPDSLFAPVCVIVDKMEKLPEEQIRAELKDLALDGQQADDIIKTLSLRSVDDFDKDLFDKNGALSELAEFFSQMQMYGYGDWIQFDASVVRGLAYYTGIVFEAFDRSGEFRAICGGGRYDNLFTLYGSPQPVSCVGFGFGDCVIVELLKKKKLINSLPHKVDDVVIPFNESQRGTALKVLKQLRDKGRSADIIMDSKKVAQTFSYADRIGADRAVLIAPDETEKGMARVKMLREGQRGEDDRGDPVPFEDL

The filed quantity is “Percent Effect” (%). The controls that fix the scale are not given in the record; negative values are as filed. The compounds are a random part of those screened.

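Enzyme assay of histidyl-tRNA synthetase; the read-out is not stated. Target: Histidine-tRNA ligase, Leishmania infantum (UniProt A4I591). Tested at 30 µM. The record gives no direction; compounds that gave an IC50 in retests scored well above the rest, so higher reads as stronger inhibition. The assay is labelled LdHisRS but filed under L. infantum. Of about 69,000 compounds tested this way, about 410 (0.6%) reached 50% or more in at least one test.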

SMILES	percent effect
CC(Cn1cccn1)NC(=O)C1=Cc2ccccc2OC1 (stereo not drawn)	16%
CCc1nnc(CN2CCN(C(C)=O)CC2)o1	15.07%
Cc1ccccc1CN(C)C(=O)c1cc(C2CCCN2C)ccn1 (stereo not drawn)	24%
COc1cccc(CC(C)NC(=O)NCCNC(C)=O)c1 (stereo not drawn)	-2.083%
N#Cc1cccc(N2CCC(CO)(CCOc3ccccc3)CC2)n1	0%
CCN(Cc1nc2c(cnn2C)c(=O)[nH]1)Cc1cccs1	18.67%
CCCc1n[nH]c(C2CN(C(=O)c3cncnc3C)CCO2)n1 (stereo not drawn)	20.54%
CNC(=O)c1cc2c(nc1NCC(C)C)CCN(C)CC2	9.211%
CC(C)CCN1CCC2(CC1)NCc1ccccc1NC2=O	13.79%
CNC(=O)[C@H]1C[C@@H]2CN(S(=O)(=O)c3cccc(F)c3)C[C@@H]2N1C	28.57%
c1csc(-c2nnc(CSCCN3CCOCC3)o2)c1	11.69%
COc1ccc(CC(=O)N2CCc3nc(C(=O)N(C)C)sc3CC2)cc1	3.448%
CCc1cc(CN(C)C(=O)CN2CC3(CCNCC3)OC2=O)on1	22.86%
Cc1cnn(CC2CCCN2C(=O)c2cccc(CC#N)c2)c1 (stereo not drawn)	-1.124%
CC(C)N1CCCC2(CCN(C(=O)CCCn3cccn3)C2)C1=O (stereo not drawn)	8.333%
COc1cc2c(cc1CNCc1ccnc(-n3cccn3)c1)OC(C)C2 (stereo not drawn)	6.667%
N#Cc1ccccc1C(=O)N1C[C@@H](CN2CCOCC2)[C@@H](CO)C1	5.6%
CC(C)c1nc2n(n1)CC(NCc1nc(C3CC3)no1)CC2 (stereo not drawn)	-0.8772%
Cc1n[nH]c(C2CN(C(=O)c3cc(C4CC4)on3)CCO2)n1 (stereo not drawn)	10.96%
CS(=O)(=O)CCN(CCc1cccc(F)c1)C1CC1	0%
O=C1N(c2cccc(Cl)c2)Cc2nc(=O)[nH]n21	15%
O=C(CCc1ccc2c(c1)CCO2)Nc1nnn[nH]1	19.57%
Cc1ncsc1C(=O)NCCSCCCO	18.46%
CCn1cc(S(=O)(=O)NC2(CN3CCOCC3)CCCCC2)c(C)n1	3.448%
Cc1cc(N2CCC(N(C)C(=O)c3sccc3C)CC2)nc(C)n1	18.07%
O=C(N1CCCC1)N1CCN(CC2CC2)c2ncccc2C1	8.029%
O=C(O)c1ccnc(SCC(=O)c2ccccc2)c1	19.54%
Cc1c(CNC2CCN(c3ccccc3OC(F)F)C2)cnn1C (stereo not drawn)	12.86%
Cc1cc(F)ccc1CN1CCCC(O)(CN2CCCC2)C1 (stereo not drawn)	17.74%
CCOCC(O)CN1CCN(C(=O)c2cc(C)ccc2F)CC1 (stereo not drawn)	15.38%
Cn1cc(C(=O)N[C@H]2CN(Cc3nccs3)[C@@H]3CCCO[C@H]23)cn1	28.57%
COc1ccc(CCN2CCCC(CN(C)Cc3[nH]cnc3C)C2)cc1 (stereo not drawn)	6.024%
Cc1n[nH]c(C2CN(CCNC3CCCCC3)CCO2)n1 (stereo not drawn)	25.71%
CNC(=O)CCNC(=O)c1ccccc1N1CCOCC1	16.13%
Fc1ccc(F)c(CN2CCC(c3cc4ncccc4cn3)CC2)c1	35.21%
O=C(CCn1cncn1)Nc1ccc(F)cc1OCC1CC1	14.52%
Cc1cc(C)n(C2CN(Cc3noc(-c4ccccc4)n3)C2)n1	6.604%
COCC(=O)N1CCC2(COCc3cnc(N4CCOCC4)nc32)C1 (stereo not drawn)	6%
COCCCN(CCOC)C(=O)Nc1ccccc1-n1cccn1	11.24%
Cc1ccsc1C(CNC(=O)c1cc(=O)c2ccccc2[nH]1)N(C)C (stereo not drawn)	10%
CC(NC(=O)Cc1cccs1)c1nnc2n1CCC2 (stereo not drawn)	8.929%
Cc1oc(NC(=O)C(C)N2CCN(C(C)(C)CO)CC2)c(C#N)c1C (stereo not drawn)	11.11%
Cc1noc(CCCC(=O)NCC(c2ccco2)N2CCCCC2)n1 (stereo not drawn)	10%
CC(C)CSCCCNC(=O)C1CCC1	7.229%
CCN(Cc1cc(Cl)ccc1OC)Cc1nccn1C	9.211%
O=C(NCc1cncc2c1CCN(C1CCOCC1)C2)c1ccco1	7.692%
CN1[C@H](CN2CCCC2)C[C@@H]2CN(Cc3ccoc3)CC[C@@H]21	6.838%
Cn1ncc2c1C(COCC1CC1)CN(Cc1ccoc1)C2 (stereo not drawn)	15.04%
COCCC(=O)N1C[C@@H](c2cccc(OC)c2)[C@@]2(CCCCC(=O)N2)C1	14.18%
Cc1ncc2c(n1)C1(CCN(C(=O)C(C)C)CC1)OCC2	9.859%
CCc1nc(C(=O)N(CC)CC(=O)Nc2cc(Cl)ccc2C)c[nH]1	11.5%
CCn1cc2c(n1)C(COC)CN(C(=O)COc1ccccc1C)C2 (stereo not drawn)	7.843%
CN1CCC(C)(CNC(=O)c2ccc(SCc3cccnc3)cc2)CC1	3.297%
Cc1ccc(-n2cc(C)cn2)c(NC(=O)NC2(C)CCOC2)c1 (stereo not drawn)	10.53%
O=C(C1CCCCC1)N1CCCC([C@@H]2C[C@H](C(F)F)n3ncnc3N2)C1 (stereo partly drawn)	10.07%
Cc1cc(C)n(CC2CCCCN2CCC(=O)Nc2cc(C)on2)n1 (stereo not drawn)	12.28%
Cc1cc2c(N3CCC(N(C)Cc4cnn(C)c4)CC3)ncnc2s1	12.9%
CCCN(Cc1ccc(C(=O)NCC2COCCO2)c(=O)[nH]1)C1CC1 (stereo not drawn)	4.762%
O=C(CCCNC(=O)C1CC1)Nc1cnn(-c2ccccc2Cl)c1	27.69%
CC(C)c1ncc2c(n1)CN(CC(=O)Nc1ccncc1)CC2	13.39%
Cc1ccc(N2CCN(C(=O)[C@@H]3CCC(=O)N3)CC2=O)cc1	14.29%
Cc1ccc(NC(C)C(=O)NCc2cccs2)cc1Cl (stereo not drawn)	4.839%
COc1ccc(C(C(=O)O)N2CCC(Cn3cccn3)CC2)c(OC)n1 (stereo not drawn)	6.329%
N#Cc1cccc(CN2CCn3cc(CNC(=O)C4CCC4)nc3C2)c1	25.71%
COCCCN1CCCC12CCN(Cc1cccnc1OC)CC2	6.897%
CN(C)c1ccc(C(=O)N2CCCC2c2noc(C3CC3)n2)nn1 (stereo not drawn)	14.68%
Cc1ccc(S(=O)(=O)N2CCOCC2C#N)cc1Br (stereo not drawn)	0.8929%
NC(=O)C1CCN(C(=O)CCn2c(C(F)(F)F)cc3cccnc32)CC1	-7.368%
COc1cn(-c2ccccc2)nc1C(=O)NCCN1CCCC(C)C1 (stereo not drawn)	13.91%
Cc1nc(C)n(CC2CCCN(CC(=O)Nc3cc(C)on3)C2)n1 (stereo not drawn)	9.174%
CC(C)(C)NC(=O)NC(=O)CN1C=Nc2ccccc2S1(=O)=O	6.14%
Cc1cc(CNC(=O)c2cnoc2C)c(C)o1	13.04%
O=S(=O)(Cc1cccc(F)c1)Nc1cc(Cl)ccn1	23.6%
Cc1nc(CN2CCC23CCN(C(=O)c2ccco2)CC3)cs1	0.9009%
Fc1cccc(C2CCCN2Cc2nnnn2C2CC2)c1 (stereo not drawn)	16.05%
CCN1C(=O)C2(CCOCC2)c2cc(NC(=O)c3cc(C)n[nH]3)ccc21	26.03%
Cc1ncsc1C(=O)NCc1cc2n(n1)CCN(C(=O)N(C)C)C2	17.81%
CCc1cc(C)nc(N2CCN(C(C)c3nc(C)no3)CC2)n1 (stereo not drawn)	0.8333%
COc1ccc(CNC2CCCc3nc(N(C)C)ncc32)c(OC)c1 (stereo not drawn)	8.392%
CCC(CC)NC(=O)c1ncn2c1CN(CC)S(=O)(=O)c1ccccc1-2	2.941%
Cc1nnsc1C(=O)NCc1nn(C2CCCC2)c2c1CCCC2	15.58%
COC(=O)CCn1ccc(=O)c2ccc(OC)cc21	-3.571%
CNC(=O)[C@H]1C[C@H]2OCC[C@H]2N(CCOc2ccc(Cl)cc2)C1	19.74%
CCOCc1cnc2n1CCN(C(=O)c1cn(C)c3ccccc13)C2C (stereo not drawn)	13.86%
COc1cc(C2CC(=O)Nc3c2c(=O)[nH]n3C2CCCCC2)ccc1O (stereo not drawn)	1.099%
CC(C)(C)NC(=O)CNC(=O)CCc1ccccc1Br	20.19%
Cc1nc(C(C)NC(=O)c2cn(Cc3ccc(Cl)cc3)nn2)n[nH]1 (stereo not drawn)	18.68%
O=C(c1cn(Cc2ccc(Cl)cc2)nn1)N1CCCO1	10.45%
CN1CCC(c2nnc3n2CCN(S(=O)(=O)c2ccccc2)C3)CC1	4.317%
Cc1noc(C)c1CN(C)Cc1cnc(N2CCOCC2)nc1	7.895%
CC(=O)N(Cc1ncc(C)o1)C1CCN(Cc2nnc(C3CC3)o2)C1 (stereo not drawn)	2.564%

Once more, the final 7:

COc1cc(C2CC(=O)Nc3c2c(=O)[nH]n3C2CCCCC2)ccc1O (stereo not drawn) read 1.099%.
CC(C)(C)NC(=O)CNC(=O)CCc1ccccc1Br read 20.19%.
Cc1nc(C(C)NC(=O)c2cn(Cc3ccc(Cl)cc3)nn2)n[nH]1 (stereo not drawn) read 18.68%.
O=C(c1cn(Cc2ccc(Cl)cc2)nn1)N1CCCO1 read 10.45%.
CN1CCC(c2nnc3n2CCN(S(=O)(=O)c2ccccc2)C3)CC1 read 4.317%.
Cc1noc(C)c1CN(C)Cc1cnc(N2CCOCC2)nc1 read 7.895%.
CC(=O)N(Cc1ncc(C)o1)C1CCN(Cc2nnc(C3CC3)o2)C1 (stereo not drawn) read 2.564%.